Test results: patent publication US20200231681A1
Results are given in words; binding and its absence hold for the method and conditions named. Some entries that bind do so weakly or less than the wild type.

What was measured:
[1] = molecular target: cynomolgus monkey c-Met ECD (SiNo. Biological, 90304-CO8H) (cynomolgus monkey); experiment: SPR (BIAcore)
[2] = molecular target: cynomolgus monkey c-Met ECD (SiNo. Biological, 90304-CO8H) (cynomolgus monkey); experiment: ELISA, coated antigen 2 µg/ml
[3] = molecular target: cynomolgus monkey c-Met ECD (SiNo. Biological, 90304-CO8H) (cynomolgus monkey); experiment: ELISA, antigen coated at 2 µg/ml, antibody 6.4 pM to 100 nM, anti-human IgG F(ab')2-HRP, TMB, O.D. at 450 nm [panel Cynomolgus monkey cMet]

Measured: binding

B1: hu8C4 (IgG1 humanized antibody having a hinge region of SEQ ID NO: 38 in hu8C4-1) (antibody, V domains shown)
VH: EVQLVESGGGLVQPGGSLRLSCAASGYTFSDYYINWVRQAPGKGLEWIGEIFPGSGNTHFSARFKGRATLSADKSKNTAYLQMNSLRAEDTAVYYCAGGDYGFLYWGQGTLVTVSS
VL: DIQMTQSPSSLSASVGDRVTITCGASENIYGALNWYQQKPGKAPKLLIYGATNLADGVPSRFSGSGSGRDFTFTISSLQPEDIATYYCQNVLSSPYTFGQGTKVEIK
binds: [1] | [2] | [3]
